{"source": "PubChem BioAssay AID540256", "about": "(National Center for Advancing Translational Sciences (NCATS), 2011)", "note": "Among all 300,000 compounds or so, about 3,700 (1.2%) were called active. The inconclusive results got no clear call from the source; some entries with a clear call stand among them for comparison. Calls come from the whole dose curve; tested in HEK293 cells. A potency beside an inconclusive call is a rough fit, not a confirmed value. Potency is the fitted concentration of half-maximal effect.", "data": [{"experiment": "qHTS for Inhibitors of binding or entry into cells for Lassa Virus; note: nearly all actives have a fitted effect of over 50% in size", "conditions": "Lassa virus pseudotype entry inhibition, cell reporter; series mostly up to 37.9 µM", "values": [{"molecule": "COc1cc(C(=O)OCc2cc(=O)n3ccsc3n2)ccc1OC(C)C", "Potency": "inconclusive: 8.91 µM [inhibitor, partial curve, poor fit]"}, {"molecule": "Cc1ccc2c(CC(=O)NNC(=O)c3ccccc3O)coc2c1", "Potency": "inconclusive: 8.91 µM [activator, partial curve, poor fit]"}, {"molecule": "O=C(NNc1cc(N2CCOCC2)nc(N2CCOCC2)n1)C12CC3CC(CC(C3)C1)C2", "Potency": "inactive"}, {"molecule": "Cc1cc(C)cc(N2C(=O)CSC23C(=O)N(CC(=O)NC2CCCCC2)c2ccccc23)c1", "note": "(configuration not stated)", "Potency": "inconclusive: 12.6 µM [inhibitor, partial curve, poor fit]"}, {"molecule": "CCOC(=O)c1ccccc1NC(=O)N1CCCn2nc(C)cc21", "Potency": "inconclusive: 8.91 µM [inhibitor, partial curve]"}, {"molecule": "Cc1ccc(S(=O)(=O)Nc2ccccc2F)cc1C(=O)NNC(=O)c1ccccc1O", "Potency": "inconclusive: 22.4 µM [inhibitor, single point]"}, {"molecule": "CCC(=NCCc1c(C)[nH]c2ccc(C)cc12)C1=C(O)CC(c2ccccc2)CC1=O", "note": "(configuration not stated)", "Potency": "inconclusive: 2.06 µM [inhibitor, full curve]"}, {"molecule": "COc1ccc(OC)c(Nc2ncnc3c2cnn3-c2cccc(C)c2)c1", "Potency": "inconclusive: 3.66 µM [inhibitor, full curve]"}, {"molecule": "CN(Cc1ccccc1N1CCCC1)C(=O)c1cc2ccccc2o1", "Potency": "inactive"}, {"molecule": "Cc1ccc(SCC(=O)Nc2ccc(N3CCN(C)CC3)c(F)c2)cc1", "Potency": "inconclusive: 2.82 µM [activator, partial curve, poor fit]"}, {"molecule": "Cc1ccc(/C=N/n2c(C)nnc2C)cc1", "Potency": "inconclusive: 14.1 µM [activator, partial curve, poor fit]"}, {"molecule": "O=C(CN1CCN(S(=O)(=O)c2ccc(F)cc2)CC1)Nc1cccc(C(F)(F)F)c1", "Potency": "inconclusive: 35.5 µM [inhibitor, single point]"}, {"molecule": "CCOc1cccc(Nc2cc3n(c(=O)n2)CCc2cc(OC)c(OC)cc2-3)c1", "Potency": "inactive"}, {"molecule": "Cc1ccccc1Cn1nnc2c(=O)[nH]c(C3CCCN(C(=O)c4ccc(C(C)(C)C)cc4)C3)nc21", "note": "(configuration not stated)", "Potency": "inactive"}, {"molecule": "COC(=O)C(O)(c1ccc(N(C)C(=O)c2cccs2)cc1)C(F)(F)F", "note": "(configuration not stated)", "Potency": "inconclusive: 12.6 µM [inhibitor, partial curve, poor fit]"}, {"molecule": "CCOc1ccc(C(c2c(NC(=O)c3ccccc3)sc(C)c2C)N2CCN(C)CC2)cc1", "note": "(configuration not stated)", "Potency": "inconclusive: 35.5 µM [inhibitor, partial curve, poor fit]"}, {"molecule": "Cn1c(CN2CCCCC2)nc2cc(NC(=O)c3cccs3)ccc21", "Potency": "inactive"}, {"molecule": "CS(=O)(=O)N1N=C(c2cccs2)CC1c1ccco1", "note": "(configuration not stated)", "Potency": "inconclusive: 14.1 µM [activator, partial curve, poor fit]"}, {"molecule": "CCOC(=O)C1CCCN(C(=O)c2ccccc2NC(=O)c2nsc3ccccc23)C1", "note": "(configuration not stated)", "Potency": "inconclusive: 1 µM [inhibitor, full curve, poor fit]"}, {"molecule": "COC(=O)c1c(C)[nH]c(O)c1C=Nc1ccc(Oc2ccccc2)cc1", "Potency": "inconclusive: 0.891 µM [inhibitor, full curve, poor fit]"}, {"molecule": "CN(C)N1C(=O)CC(N2CCCC2)C1=O", "note": "(configuration not stated)", "Potency": "inactive"}, {"molecule": "O=C(/C=C/c1ccc([N+](=O)[O-])s1)N1CCCCC1", "Potency": "inconclusive: 35.5 µM [inhibitor, single point]"}, {"molecule": "CCOc1ccc(C2CC(=O)c3c([nH]c(C(=O)OCCOc4ccccc4)c3C)C2)cc1", "note": "(configuration not stated)", "Potency": "inconclusive: 0.631 µM [inhibitor, full curve, poor fit]"}, {"molecule": "CNC(=O)C1CCN(C(=O)N2CC(C)Oc3ccc(Cl)cc32)CC1", "note": "(configuration not stated)", "Potency": "inconclusive: 7.08 µM [inhibitor, partial curve, poor fit]"}, {"molecule": "Cc1ccc(N(CC(=O)O)S(C)(=O)=O)cc1Cl", "Potency": "inconclusive: 7.94 µM [activator, partial curve, poor fit]"}, {"molecule": "CCC(C)(C)c1ccc(OCCCC[n+]2cccc(C)c2)c(C(C)(C)CC)c1", "Potency": "inconclusive: 11.2 µM [inhibitor, partial curve, poor fit]"}, {"molecule": "COc1cc(C(=O)Nc2ccccc2N2CCCCC2)cc(OC)c1OC", "Potency": "inconclusive: 25.1 µM [inhibitor, partial curve, poor fit]"}, {"molecule": "S=C(NCCN1CCOCC1)Nc1ccc(Cl)c(Cl)c1", "Potency": "inconclusive: 0.794 µM [inhibitor, single point]"}, {"molecule": "COc1ccc(CCNCc2ccc3c(c2)n(C)c(=O)n3C)cc1", "Potency": "inactive"}, {"molecule": "Cc1ccccc1C1c2[nH]c3ccccc3c2CCN1C(=O)c1ccc(=O)n(C)n1", "note": "(configuration not stated)", "Potency": "inconclusive: 22.4 µM [inhibitor, single point]"}, {"molecule": "COC(=O)[C@H]1[C@H](CCc2ccccc2)NC(=O)N(Cc2ccccc2)[C@H]1C", "Potency": "inconclusive: 0.106 µM [inhibitor, full curve, poor fit]"}, {"molecule": "C=C(C)COc1ccc(-c2ncnc(C(F)(F)F)c2-c2ccccc2)c(O)c1", "Potency": "inconclusive: 0.562 µM [inhibitor, full curve, poor fit]"}, {"molecule": "Cc1c(NS(=O)(=O)c2cc(C(=O)NCc3cccnc3)cc(Cl)c2Cl)c(=O)n(-c2ccccc2)n1C", "Potency": "inactive"}, {"molecule": "O=C(/C=N/O)Nc1cccnc1", "Potency": "inactive"}, {"molecule": "Cc1csc(NC(=O)CSc2nnc(-c3ccncc3)o2)n1", "Potency": "inactive"}, {"molecule": "O=C(c1ccc([N+](=O)[O-])cc1)n1nc(-c2ccccc2)nc1NCc1ccccc1", "Potency": "inactive"}, {"molecule": "Cc1ccc(C)c(OCCn2c(=O)c3c(ncn3C3CCCC3)n(Cc3ccccc3)c2=O)c1", "Potency": "inactive"}, {"molecule": "CCCCCCC(=O)N/N=C/c1ccc(Br)cc1", "Potency": "inconclusive: 14.6 µM [inhibitor, partial curve, poor fit]"}, {"molecule": "O=C(N=Nc1c(O)[nH]c2ccccc12)c1ccccc1NS(=O)(=O)c1cccs1", "Potency": "inactive"}, {"molecule": "CNC(=O)c1cc2ccccc2o1", "Potency": "inactive"}, {"molecule": "CSc1ccccc1C(=O)Nc1nc2ccccc2[nH]1", "Potency": "inconclusive: 0.794 µM [activator, partial curve, poor fit]"}, {"molecule": "CC1=C(C(=O)Nc2ccccc2C)C2(CCCC2)C(C(N)=O)C(=O)N1", "note": "(configuration not stated)", "Potency": "inactive"}, {"molecule": "C(=N\\Nc1nc(Nc2ccccc2)nc(N2CCOCC2)n1)/c1c[nH]c2ccccc12", "Potency": "inconclusive: 0.58 µM [inhibitor, full curve, poor fit]"}, {"molecule": "COc1ccc(C(=O)CSc2nc(C)cc(C)n2)cc1[N+](=O)[O-]", "Potency": "inconclusive: 6.31 µM [inhibitor, partial curve, poor fit]"}, {"molecule": "CCCCSc1nnc(-c2ccc(NC(C)=O)cc2)n1C", "Potency": "inactive"}, {"molecule": "CCN(CC)C(=O)CSc1nc2c(c(=O)n(C)c(=O)n2C)n1Cc1ccccc1", "Potency": "inconclusive: 1.41 µM [inhibitor, full curve, poor fit]"}, {"molecule": "COc1ccc(/C=C2/SC(=S)N(CCCC(=O)Nc3cccc(O)c3)C2=O)cc1", "Potency": "inconclusive: 11.2 µM [inhibitor, partial curve, poor fit]"}, {"molecule": "Cc1ccc(CNC(=O)c2ccc3nc4[nH]c5ccccc5c4nc3c2)cc1", "Potency": "inactive"}, {"molecule": "N#Cc1c(-c2ccccc2)ccn(Cc2cccc(Cl)c2)c1=O", "Potency": "inactive"}, {"molecule": "COc1ccc(N2CCN(C(=O)CSc3nnc(NC(=O)C4CC4)s3)CC2)cc1", "Potency": "inconclusive: 12.6 µM [inhibitor, partial curve, poor fit]"}, {"molecule": "C=CCSc1nnc2c(n1)OC(c1cccnc1)N(C(C)=O)c1ccccc1-2", "note": "(configuration not stated)", "Potency": "inactive"}, {"molecule": "Cc1cccc(C)c1NC(=O)CSc1nnc(CCCCCNC(=O)OC(C)(C)C)o1", "Potency": "inactive"}, {"molecule": "O=C(Cn1cc(SCc2ccc(F)cc2)c2ccccc21)N1CCCCCC1", "Potency": "inconclusive: 35.5 µM [inhibitor, single point]"}, {"molecule": "COc1cccc(NC(=O)CN(C)C(=O)CCN2C(=O)C3CC=CCC3C2=O)c1", "note": "(configuration not stated)", "Potency": "inactive"}, {"molecule": "O=C1c2ccc([N+](=O)[O-])cc2S(=O)(=O)N1Cc1ccccc1", "Potency": "inconclusive: 35.5 µM [inhibitor, partial curve, poor fit]"}, {"molecule": "Cc1cc(C)cc(N(C(=O)c2ccc(Br)o2)C2C=CS(=O)(=O)C2)c1", "note": "(configuration not stated)", "Potency": "inconclusive: 5.62 µM [activator, partial curve, poor fit]"}, {"molecule": "CNC(=O)COC(=O)c1cc(-c2ccc(OC)cc2)nc2ccccc12", "Potency": "inactive"}, {"molecule": "Cc1ccc(NC(=O)c2ccc3c(c2)OCCO3)nc1", "Potency": "inconclusive: 7.94 µM [inhibitor, partial curve, poor fit]"}, {"molecule": "Cc1ccc(S(=O)(=O)N2CCCCC2)cc1NC(=O)CSc1ncnc2ccccc12", "Potency": "inconclusive: 35.5 µM [inhibitor, single point]"}, {"molecule": "O=[N+]([O-])c1ccc(CSc2nc3ccccc3[nH]2)cc1", "Potency": "inconclusive: 4.47 µM [activator, full curve, poor fit]"}, {"molecule": "CCCCCC(=O)N1CCN(CCN=CC2=C(O)CC(c3ccco3)CC2=O)CC1", "note": "(configuration not stated)", "Potency": "inconclusive: 23.1 µM [activator, partial curve, poor fit]"}, {"molecule": "Cc1nn(C)c2c1c(-c1ccccc1)cc(=O)n2Cc1ccc(F)cc1Cl", "Potency": "inactive"}, {"molecule": "O=[N+]([O-])c1ccc(Sc2cccc[n+]2[O-])c2nonc12", "Potency": "inconclusive: 2.82 µM [inhibitor, full curve, poor fit]"}, {"molecule": "Cc1cc(=O)n2c3ccccc3n(CC(O)CN3CCCC3)c2c1C#N", "note": "(configuration not stated)", "Potency": "inconclusive: 32.6 µM [inhibitor, single point]"}, {"molecule": "N/C(=N\\OC(=O)c1ccccc1Cl)c1ccncc1", "Potency": "inactive"}, {"molecule": "C/C(=N\\NP(=S)(c1ccccc1)c1ccccc1)c1ccc(O)cc1O", "Potency": "inconclusive: 35.5 µM [inhibitor, single point]"}, {"molecule": "COc1cc(/C=C2\\SC(=S)N(Nc3ccccc3)C2=O)cc(OC)c1OC", "Potency": "inconclusive: 8.91 µM [inhibitor, partial curve, poor fit]"}]}]}
